Experimental data as given in publication PMC12339387.

Chains of the proteins cited; added tags and fusions are not shown.
UniProt Q92793: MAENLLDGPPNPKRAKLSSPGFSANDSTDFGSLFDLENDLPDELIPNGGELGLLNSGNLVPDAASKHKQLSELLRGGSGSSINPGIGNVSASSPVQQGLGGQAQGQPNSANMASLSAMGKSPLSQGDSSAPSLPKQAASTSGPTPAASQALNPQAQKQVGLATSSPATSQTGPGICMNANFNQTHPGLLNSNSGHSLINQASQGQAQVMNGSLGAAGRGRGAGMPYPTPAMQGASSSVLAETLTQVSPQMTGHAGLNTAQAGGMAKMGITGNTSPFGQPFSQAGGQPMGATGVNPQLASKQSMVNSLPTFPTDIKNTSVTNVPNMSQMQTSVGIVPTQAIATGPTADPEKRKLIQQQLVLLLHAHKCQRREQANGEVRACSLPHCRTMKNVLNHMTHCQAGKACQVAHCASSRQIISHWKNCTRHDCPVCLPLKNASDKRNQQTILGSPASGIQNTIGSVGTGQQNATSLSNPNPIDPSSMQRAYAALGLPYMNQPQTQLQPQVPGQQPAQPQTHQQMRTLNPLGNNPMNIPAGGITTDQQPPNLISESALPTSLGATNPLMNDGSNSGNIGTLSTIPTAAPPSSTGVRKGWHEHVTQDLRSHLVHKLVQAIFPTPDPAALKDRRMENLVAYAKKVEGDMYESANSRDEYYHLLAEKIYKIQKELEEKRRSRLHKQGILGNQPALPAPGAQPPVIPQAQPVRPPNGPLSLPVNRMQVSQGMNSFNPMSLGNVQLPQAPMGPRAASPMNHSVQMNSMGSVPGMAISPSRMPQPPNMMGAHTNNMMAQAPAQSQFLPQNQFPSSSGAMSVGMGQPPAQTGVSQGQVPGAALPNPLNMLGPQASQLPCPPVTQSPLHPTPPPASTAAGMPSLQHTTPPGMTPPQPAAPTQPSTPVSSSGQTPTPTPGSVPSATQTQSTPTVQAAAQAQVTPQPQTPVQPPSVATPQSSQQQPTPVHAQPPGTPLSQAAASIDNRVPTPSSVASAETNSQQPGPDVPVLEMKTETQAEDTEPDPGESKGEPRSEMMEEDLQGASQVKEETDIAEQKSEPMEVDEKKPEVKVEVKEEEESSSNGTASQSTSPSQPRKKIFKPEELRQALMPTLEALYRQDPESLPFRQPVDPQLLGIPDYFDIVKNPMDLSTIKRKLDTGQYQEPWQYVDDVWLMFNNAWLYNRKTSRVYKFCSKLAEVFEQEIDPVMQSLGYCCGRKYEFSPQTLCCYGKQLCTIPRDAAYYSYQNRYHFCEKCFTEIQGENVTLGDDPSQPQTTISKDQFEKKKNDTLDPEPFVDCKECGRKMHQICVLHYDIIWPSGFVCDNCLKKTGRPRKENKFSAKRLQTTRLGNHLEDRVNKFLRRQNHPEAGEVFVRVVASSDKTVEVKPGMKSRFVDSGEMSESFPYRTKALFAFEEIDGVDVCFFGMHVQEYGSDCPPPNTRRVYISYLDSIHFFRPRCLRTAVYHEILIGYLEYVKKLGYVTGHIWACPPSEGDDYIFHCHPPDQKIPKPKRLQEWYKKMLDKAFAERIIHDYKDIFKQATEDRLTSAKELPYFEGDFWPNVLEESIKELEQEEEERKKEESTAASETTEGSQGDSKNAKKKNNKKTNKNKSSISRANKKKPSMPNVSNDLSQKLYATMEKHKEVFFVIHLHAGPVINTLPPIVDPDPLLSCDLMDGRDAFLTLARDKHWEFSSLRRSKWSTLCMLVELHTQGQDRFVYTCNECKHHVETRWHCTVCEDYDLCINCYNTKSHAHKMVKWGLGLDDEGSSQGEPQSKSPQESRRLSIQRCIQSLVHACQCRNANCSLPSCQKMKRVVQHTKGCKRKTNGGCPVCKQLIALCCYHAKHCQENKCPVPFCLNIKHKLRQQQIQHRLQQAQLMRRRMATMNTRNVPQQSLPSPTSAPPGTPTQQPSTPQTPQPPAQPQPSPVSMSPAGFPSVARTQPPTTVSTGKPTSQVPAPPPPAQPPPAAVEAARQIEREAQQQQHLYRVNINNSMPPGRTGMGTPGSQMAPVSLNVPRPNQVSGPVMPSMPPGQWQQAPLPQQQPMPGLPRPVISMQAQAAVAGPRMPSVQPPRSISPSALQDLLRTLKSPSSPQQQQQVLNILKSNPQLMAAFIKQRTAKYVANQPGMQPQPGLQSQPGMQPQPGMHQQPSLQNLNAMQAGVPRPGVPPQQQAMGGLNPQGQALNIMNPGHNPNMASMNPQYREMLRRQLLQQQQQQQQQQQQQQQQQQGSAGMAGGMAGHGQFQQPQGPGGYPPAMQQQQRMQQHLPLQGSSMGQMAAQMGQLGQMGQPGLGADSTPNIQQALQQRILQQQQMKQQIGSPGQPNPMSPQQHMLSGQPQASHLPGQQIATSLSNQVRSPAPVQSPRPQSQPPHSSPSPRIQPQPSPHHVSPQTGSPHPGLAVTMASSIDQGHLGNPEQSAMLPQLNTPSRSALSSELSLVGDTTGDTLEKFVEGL

Biological target: T1, FOXA2 (stably overexpressed in LuNE cells) (human) (UniProt Q9Y261)
T1 sequence: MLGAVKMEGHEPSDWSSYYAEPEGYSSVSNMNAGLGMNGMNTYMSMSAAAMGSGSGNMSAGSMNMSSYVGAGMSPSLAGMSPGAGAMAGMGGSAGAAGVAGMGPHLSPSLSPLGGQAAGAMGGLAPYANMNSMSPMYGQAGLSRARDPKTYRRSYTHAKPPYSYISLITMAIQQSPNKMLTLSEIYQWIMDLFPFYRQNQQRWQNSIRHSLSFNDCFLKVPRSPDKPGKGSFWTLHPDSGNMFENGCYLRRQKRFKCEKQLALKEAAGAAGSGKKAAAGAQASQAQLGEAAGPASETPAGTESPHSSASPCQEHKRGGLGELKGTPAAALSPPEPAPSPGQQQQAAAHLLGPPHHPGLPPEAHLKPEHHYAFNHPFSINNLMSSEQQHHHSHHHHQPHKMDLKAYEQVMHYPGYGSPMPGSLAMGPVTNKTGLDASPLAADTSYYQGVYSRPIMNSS
Experiment: affinity purification with mass spectrometry; FOXA2 versus IgG Co-IP from the chromatin fraction of LuNE cells, three replicates pooled, Orbitrap Velos Pro, SEQUEST (Fig. 7a)

binding: binds
Substance: CREBBP (CBP) (from UniProt Q92793 1-2442) (enzyme)

Results are given in words; binding and its absence hold for the method and conditions named. In cells and extracts the contact can be indirect. These calls come from enrichment with a bait or labelling near it, and not all partners need be listed.
